At least one compound was matched to its structure with a doubt left.
Experiment: Solubility test: 200 mg sample in 10 ml test solution, shaken at 25° C., content by HPLC
Format: physicochemical
Settings: for mg/ml dissolved: 25° C., 200 mg sample in 10 ml test solution

SMILES | mg/ml dissolved (0.5 h) | dissolved telaprevir (FIG. 2) (0.5 h) | mg/ml dissolved (2 h) | dissolved telaprevir (FIG. 2) (2 h) | mg/ml dissolved (4 h) | dissolved telaprevir (FIG. 2) (4 h) | dissolved telaprevir (FIG. 1) (time point 0.5) | dissolved telaprevir (FIG. 1) (time point 2) | dissolved telaprevir (FIG. 1) (time point 4)
CCC[C@H](NC(=O)[C@@H]1[C@H]2CCC[C@H]2CN1C(=O)[C@@H](NC(=O)[C@@H](NC(=O)c1cnccn1)C1CCCCC1)C(C)(C)C)C(=O)C(=O)NC1CC1 [Telaprevir amorphous, telaprevir] | 0.040 mg/mL | 0.040 | 0.008 mg/mL | 0.008 | 0.005 mg/mL | 0.005 | 0.040 | 0.008 | 0.005
CCC[C@H](NC(=O)[C@@H]1[C@H]2CCC[C@H]2CN1C(=O)[C@@H](NC(=O)[C@@H](NC(=O)c1cnccn1)C1CCCCC1)C(C)(C)C)C(=O)C(=O)NC1CC1 [Telaprevir crystalline, telaprevir] | 0.003 mg/mL | 0.003 | 0.003 mg/mL | 0.003 | 0.002 mg/mL | 0.002 | 0.003 | 0.003 | 0.002
